Source: patent publication US20210198349A1 (NEW YORK UNIVERSITY, published 2021)
No constants are given. Whether binding was seen depends on the method and setting. A result given as binding can be weak or reduced; the word gives no strength.

Target: PHF purified from human AD brain (human)
Assay: dot blot on PHF purified from human AD brain

| Binder | binding |
| --- | --- |
| Antibody 5G2A3 (antibody, V domains shown, Hybridoma-derived monoclonal antibody; also called 5G2A3/5G2G6) VH: EVKLVESGGGLVKPGGSLTLSCAASGFTFSSYAMSWVRQTPEKSLEWVASISSGGNTFYPDTVKGRFTISRDNARNILYLQMSGLRSEDTAIYYCARRGDPNMITTLFGYWGQGTLVTISA VL: DVLMTQTPLSLPVSLGDQASISCRSSQSILHRNGNTYLDWFLLKPGQSPKLLIYKVSNRFSGVPDRFSGSGSGTDFTLKISRVEAEDLGVYYCFQGSHVPWTFGGGTKLEIK | binds |
| Antibody 1G11A10 (antibody, V domains shown, Hybridoma-derived monoclonal antibody) VH: EVKLVESGGGLMKPGGSLKLSCAASGFTFSSYAMSWVRQSPEKRLEWVASISSGGQTYSPDSVKGRFTISRDNARNILYLQMRNLRSEDTAMYYCASRGDPTMTATLFVYWGQGTLVTVS VL: DVLMTQTPLSLPVSLGDQASISCRSSQSIINSNGNTYLEWYLQKPGQSPKLLIYKVSNRFSGVPDRFSGSGSGTDFTLKISRVETEDLGIYYCFQGSHVPWTFGGGTKLEIK | binds |
